Test results taken from patent publication US20240173353A1, “UNIVERSAL CHIMERIC ANTIGEN RECEPTOR T-CELL AND APPLICATION THEREOF” (SHANGHAI IASO BIOTECHNOLOGY CO., LTD., priority 2021, published 2024).
Results are given in words; binding and its absence hold for the method and conditions named. Some binding calls cover weakened binding; strength is not graded here.

Amino acid sequences for entries named in this document (tags omitted). Residues count along the entry.
UniProt P15391, residues 20-291: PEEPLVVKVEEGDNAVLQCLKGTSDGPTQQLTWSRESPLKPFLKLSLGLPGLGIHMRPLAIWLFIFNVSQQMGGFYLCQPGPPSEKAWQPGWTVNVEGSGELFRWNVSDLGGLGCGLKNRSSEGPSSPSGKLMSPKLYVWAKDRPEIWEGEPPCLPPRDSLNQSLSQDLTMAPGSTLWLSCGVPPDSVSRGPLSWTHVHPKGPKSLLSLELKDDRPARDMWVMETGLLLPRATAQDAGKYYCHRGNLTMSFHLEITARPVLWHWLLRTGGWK

Target: CD19-antigen (human) (UniProt P15391)
Assay: flow cytometry, CD19 antigen staining of CAR-expressing UCART cells

B1: Anti-CD19 scFv on the CAR structure of CD19-UCART containing various third signal structures (scFv, not shown: small tags and cut ends)
scFv: QAVLTQPPSVSEAPRQRVTISCSGSSSNIGNNAVSWYQQLPGKAPKLLIYYDDLLPSGVSDRFSGSKSGTSASLAISGLQSEDEADYYCAAWDDSLNGWVFGGGTKVTVLGGGGGSGGGGSGGGGSEVQLVQSGAEVKKPGESLKISCKGSGYSFTSYWIGWVRQMPGKGLEWMGIIYPGDSDTRYSPSFQGQVTISADKSISTAYLQWSSLKASDTAMYYCARLSYSWSSWYWDFWGQGTLVTVSS
For B1, the binding was “binds”.
